Measurements reported in PubChem BioAssay AID1259405 (NCATS, 2018)
Here is one part, drawn at random, of about 50,000 reagents. Over the whole deposit, about 4,000 (8%) are marked active. 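Mouse siRNA library applied to hamster cells; one well for each siRNA.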 A number with no mark means an inactive call. Not all columns of the deposit are shown.

Test: 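Silenced genes that increase secreted GFP made by CHO cells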 (primary screen)
Cells: Chinese hamster CHO-K1 ovary cells with stable secreted eGFP expression
Reagents: single siRNA against mouse genes, 0.8 pmol siRNA per well (2 µl of 400 nM stock)
Duration: 3 days
Detection: 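Percent of the per-plate non-targeting control median for intracellular GFP per well by laser scanning cytometry and for cell viability by ATP luminescence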
Reading the numbers: GFP, % of control: higher = more GFP per well, higher productivity
Active means: 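Called active when intracellular GFP, relative to negative control, is at or above 120%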

GFP, % of control, by target gene and reagent
Sirt6: SID363584517 76.7; SID363589547 87.5
Csf3: SID363541365 44.5; SID363555992 16.8; SID363566281 87.2
Gpr162: SID363540079 55; SID363561380 63.1; SID363564416 61.7
Ranbp2: SID363570124 70.7; SID363576460 65.3; SID363579628 70.5
Snx25: SID363570051 115; SID363576387 137 (active); SID363579555 80.3
Sprr3: SID363572349 84.1; SID363574109 144 (active)
AY358078: SID363540258 185 (active); SID363542010 85.9; SID363566926 67.5
Dcph1: SID363543437 89.3; SID363552930 57; SID363558778 71.4
Ost4: SID363543529 44.4; SID363553022 34.5; SID363558870 87.5
Stap1: SID363546758 84.5; SID363548514 88.7; SID363560692 46.8
Fmnl1: SID363572434 84.9; SID363574194 69.4

8 consecutive records already listed, quoted:
GFP, % of control, by target gene and reagent
Gpr162: SID363561380 63.1; SID363564416 61.7
Ranbp2: SID363570124 70.7; SID363576460 65.3; SID363579628 70.5
Snx25: SID363570051 115; SID363576387 137 (active); SID363579555 80.3

The results go on:
GFP, % of control, by target gene and reagent
Btk: SID363571050 38.1
Ly6g6d: SID363562251 93.6; SID363567389 84.8; SID363584746 98.7
Cyp11b2: SID363572975 59.2; SID363577551 65.5; SID363581071 69.4
Or51h1: SID363554301 106; SID363567748 94.3; SID363585105 55.6
Bsx: SID363546082 67.5; SID363549595 61.6; SID363563401 65.3
Vmn1r27: SID363556716 66.1; SID363563620 37.6; SID363587166 83.7
Ank2: SID363546654 83.3; SID363548410 83.4; SID363560588 91.5
Zfp248: SID363573551 64.1; SID363581295 124 (active); SID363583759 68.1
Rspo3: SID363556245 42.8; SID363586695 103; SID363588803 57.3
Xkr5: SID363552365 62.1; SID363585501 71.2; SID363585852 97.9
Or5m10b: SID363544710 84.4; SID363551038 50.2; SID363557587 52.5
Mipep: SID363574273 75; SID363575329 71.4; SID363579905 85.7
Ucp1: SID363569711 101; SID363576751 81.8; SID363578159 69.6
Glyr1: SID363569175 94.9; SID363583607 108
Osbpl6: SID363554590 53.9; SID363568037 61.3; SID363586096 75.8
Or7g33: SID363554574 111; SID363568021 118; SID363586080 92.2
Entpd7: SID363547622 60.5; SID363558391 69.4; SID363560149 94.9
Gipc3: SID363545226 250 (active); SID363548739 57.5; SID363562545 69.2
Or14j9: SID363544537 50.2; SID363550865 105; SID363557414 88.3
